Measured data: PubChem BioAssay AID743454 (Peter MacCallum Cancer Centre, 2014)
Aim: 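Search for knock-downs that restore vorinostat killing in resistant colon cancer cells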 (primary screen). Cell system: human HCT116-VR colon cancer cells, selected for vorinostat resistance. Reagent: siRNA pool against human genes, 40 nM siRNA pool. Timing: vorinostat for 24 h, read-out about 72 h after transfection. Challenge: vorinostat at 2.5 µM final. Detection: 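Cell viability by CellTiter-Fluor and caspase 3/7 activity by luminescence, each scaled to mock wells per plate, duplicates averaged, then robust z-scored over all plates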. Direction: viability robust z-score: higher = more viable cells than screen typical; caspase robust z-score: higher = more caspase 3/7 activity than screen typical. Rule for the call: 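a knock-down is a hit when classed RV1 or RV2 for lowered viability, or CA1 or CA2 for caspase activation; those lethal without drug were dropped; hits were retested singly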.
The whole screen tested about 18,000 reagents; shown is an unselected part. 450 of all reagents (2.5%) were called active. 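Single biological run; no consistent viability z cut-off exists, so the class columns, not z-scores, define the calls.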 Reagent sequences are not shown.

gene symbol,viability hit class,caspase hit class,viability robust z-score,caspase robust z-score,call
POGLUT3 (protein O-glucosyltransferase 3),no change,no change,1.41,-0.38,inactive
FAR2 (fatty acyl-CoA reductase 2),no change,no change,1.31,0.62,inactive
KCNH1 (potassium voltage-gated channel subfamily H member 1),no change,no change,-0.9,-1.19,inactive
RFPL3 (ret finger protein like 3),no change,no change,-2.61,0.91,inactive
PPP1R12C (protein phosphatase 1 regulatory subunit 12C),no change,no change,-0.35,-0.14,inactive
PTS (6-pyruvoyltetrahydropterin synthase),no change,no change,-0.13,-0.51,inactive
TIPE1 (TNF alpha induced protein 8 like 1),no change,no change,-0.72,2.87,inactive
KDM4C (lysine demethylase 4C),no change,no change,1.24,1.38,inactive
EBLN2 (endogenous Bornavirus like nucleoprotein 2),no change,no change,0.12,-0.27,inactive
PRMT7 (protein arginine methyltransferase 7),no change,no change,-0.32,-1.38,inactive
LINS1 (lines homolog 1),no change,no change,0.01,0.41,inactive
UCK1 (uridine-cytidine kinase 1),no change,no change,-1.16,1.25,inactive
AHRR (aryl hydrocarbon receptor repressor),no change,no change,0.4,-0.17,inactive
NFE2L3 (NFE2 like bZIP transcription factor 3),no change,no change,-0.36,-0.77,inactive
SLC17A3,no change,no change,-0.58,-0.18,inactive
SH3PXD2B (SH3 and PX domains 2B),no change,no change,1.49,-0.16,inactive
SLC26A9,no change,no change,0.38,-1.05,inactive
JTB (jumping translocation breakpoint),no change,no change,0.02,0.01,inactive
RPAIN (RPA interacting protein),no change,no change,-0.44,-1.02,inactive
TMC6 (transmembrane channel like 6),no change,no change,0.82,-0.82,inactive
HSPE1 (heat shock protein family E (Hsp10) member 1),no change,no change,-0.52,0.22,inactive
SALL1 (spalt like transcription factor 1),RV2 (reduced viability),no change,-3,-0.19,active
ZCRB1 (zinc finger CCHC-type and RNA binding motif containing 1),no change,no change,0.83,-0.5,inactive
ATP12A (ATPase H+/K+ transporting non-gastric alpha2 subunit),no change,no change,-1.71,2.62,inactive
PCMTD2,no change,no change,0.58,-0.52,inactive
FGF14 (fibroblast growth factor 14),no change,no change,-1.17,-0.15,inactive
TMEM161A (transmembrane protein 161A),no change,no change,-0.32,2.06,inactive
ZDHHC8 (zDHHC palmitoyltransferase 8),no change,no change,-0.78,1.1,inactive
ARHGAP4 (Rho GTPase activating protein 4),no change,no change,1.26,-0.34,inactive
FASTKD1 (FASTK mitochondrial RNA regulator 1),no change,no change,-0.51,1.25,inactive
CD5 (CD5 molecule),no change,no change,-0.31,0.26,inactive
SNAI1 (snail family transcriptional repressor 1),no change,no change,0.7,2.16,inactive
LNX1 (ligand of numb-protein X 1),no change,no change,0.25,-0.7,inactive
"SMO (smoothened, frizzled class receptor)",no change,no change,1.44,-0.77,inactive
SCAPER (S-phase cyclin A associated protein in the ER),no change,no change,1.33,-0.77,inactive
NCK2 (NCK adaptor protein 2),no change,no change,-0.44,1.86,inactive
TRIT1 (tRNA isopentenyltransferase 1),no change,no change,0.33,1.29,inactive
ACVRL1 (activin A receptor like type 1),no change,no change,0.08,-0.58,inactive

Copied from the listing (6 entries):
gene symbol,viability hit class,caspase hit class,viability robust z-score,caspase robust z-score,call
ATP12A (ATPase H+/K+ transporting non-gastric alpha2 subunit),no change,no change,-1.71,2.62,inactive
PCMTD2,no change,no change,0.58,-0.52,inactive
FGF14 (fibroblast growth factor 14),no change,no change,-1.17,-0.15,inactive
TMEM161A (transmembrane protein 161A),no change,no change,-0.32,2.06,inactive
ZDHHC8 (zDHHC palmitoyltransferase 8),no change,no change,-0.78,1.1,inactive
ARHGAP4 (Rho GTPase activating protein 4),no change,no change,1.26,-0.34,inactive

The listing continues:
gene symbol,viability hit class,caspase hit class,viability robust z-score,caspase robust z-score,call
CMKLR1 (chemerin chemokine-like receptor 1),no change,no change,-0.13,-0.87,inactive
GOLT1B (golgi transport 1B),no change,no change,0.11,-0.78,inactive
"PKD2 (polycystin 2, transient receptor potential cation channel)",no change,no change,-0.48,2.17,inactive
PMM1 (phosphomannomutase 1),no change,no change,0.42,3.28,inactive
"POLE (DNA polymerase epsilon, catalytic subunit)",no change,no change,-0.42,3.98,inactive
CCR8 (C-C motif chemokine receptor 8),no change,no change,0.34,-0.55,inactive
"ST3GAL5 (ST3 beta-galactoside alpha-2,3-sialyltransferase 5)",no change,no change,1.5,0.28,inactive
HMOX1 (heme oxygenase 1),no change,no change,0.34,-0.58,inactive
ELF3 (E74 like ETS transcription factor 3),no change,no change,-0.3,2.42,inactive
CMPK1 (cytidine/uridine monophosphate kinase 1),no change,no change,0.72,0.7,inactive
CCDC90B (coiled-coil domain containing 90B),no change,no change,1.1,-0.7,inactive
FAM120C (family with sequence similarity 120 member C),no change,no change,-0.56,0.12,inactive
KATNIP (katanin interacting protein),no change,no change,0.38,0.08,inactive
PCMT1 (protein-L-isoaspartate (D-aspartate) O-methyltransferase),no change,no change,0.66,0.15,inactive
SFTPB (surfactant protein B),no change,no change,-0.35,2.41,inactive
EPHB2 (EPH receptor B2),no change,no change,1.01,3.24,inactive
FAM184A (family with sequence similarity 184 member A),no change,no change,0.88,-0.42,inactive
TIGD2 (tigger transposable element derived 2),no change,no change,1.24,-0.32,inactive
SRSF9 (serine and arginine rich splicing factor 9),no change,no change,0.78,-0.52,inactive
